Test results as given in article PMC9136141.
These are yes or no findings as the source states them, for the method shown. Binding seen in cells or lysates may run through a third protein. Some binding calls cover weakened binding; strength is not graded here.

Target: Smad3 (human (endogenous in CCD-18Co)), P84022
Assay: co-IP; CCD-18Co cells treated with 0.1 or 0.5 mM metformin and/or 2 ng/ml TGF-β1 for 48 h; soluble lysates in CO-IP buffer incubated with anti-Smad3 antibody overnight at 4°C, Protein A or G beads 4 h; TβRI detected by western blot
Conditions: remark: other sources report otherwise

binding: binds
B1: Transforming growth factor-beta receptor I, P36897 34-503 (receptor)
chain: LQCFCHLCTKDNFTCVTDGLCFVSVTETTDKVIHNSMCIAEIDLIPRDRPFVCAPSSKTGSVTTTYCCNQDHCNKIELPTTVKSSPGLGPVELAAVIAGPVCFVCISLMLMVYICHNRTVIHHRVPNEEDPSLDRPFISEGTTLKDLIYDMTTSGSGSGLPLLVQRTIARTIVLQESIGKGRFGEVWRGKWRGEEVAVKIFSSREERSWFREAEIYQTVMLRHENILGFIAADNKDNGTWTQLWLVSDYHEHGSLFDYLNRYTVTVEGMIKLALSTASGLAHLHMEIVGTQGKPAIAHRDLKSKNILVKKNGTCCIADLGLAVRHDSATDTIDIAPNHRVGTKRYMAPEVLDDSINMKHFESFKRADIYAMGLVFWEIARRCSIGGIHEDYQLPYYDLVPSDPSVEEMRKVVCEQKLRPNIPNRWQSCEALRVMAKIMRECWYANGAARLTALRIKKTLSQLSQQEGIKM
